Reference: US20080274950A1 (BABRAHAM INSTITUTE, published 2008)
Results are given in words; binding and its absence hold for the method and conditions named. Some binding calls cover weakened binding; strength is not graded here. For some assays here: Sequences can lack the tags named with a protein. Blank lines part the entries; values can stand above or below the binder they belong to.

Legend:
[1] = target: full length chicken N-cadherin with the mutation E89A expressed on K562 cells (chicken) (UniProt P10288); assay: adhesion, data not shown
[2] = target: full length chicken N-cadherin with the mutation E89A expressed on K562 cells (chicken) (UniProt P10288); assay: adhesion of K562 E89A cells to coated N-cadherin Fc

binding [1]: binds
B1: N-cadherin with the N-terminus extended by a single Cys (protein, chicken)
chain: CDWVIPPINLPENSRGPFPQELVRIRSDRDKSLSLRYSVTGPGADQPPTGIFIINPISGQLSVTKPLDREQIASFHLRAHAVDVNGNQVENPIDIVINVIDMNDNRPEFLHQVWNGTVPEGSKPGTYVMTVTAIDADDPNAQNGMLRYRILSQAPSSPSPNMFTINNETGDIITVAAGLDREKVQQYTLIIQATDMEGNPTYGLSNTATAVITVTDVNDNPPEFTAMTFYGEVPENRVDVIVANLTVTDKDQPHTPAWNARYQMTGGDPTGQFTILTDPNSNDGLVTVVKPIDFETNRMFVLTVAAENQVPLAKGIQHPPQSTATVSITVIDVNESPYFVPNPKLVRQEEGLLAGSMLTTFTARDPDRYMQQTSLRYSKLSDPANWLKIDPVNGQITTTAVLDRESIYVQNNMYNATFLASDNGIPPMSGTGTLQIYLLDINDNAPQVNPKEATTCETLQPNAINITAVDPDIDPNAGPFAFELPDSPPSIKRNWTIVRISGDHAQLSLRIRFLEAGIYDVPIVITDSGNPHASSTSVLKVKVCQCDINGDCTDVDRIVGAGLGT

binding [2]: binds
B2: truncated chicken N-cadherin Fc fusion protein with the mutation W2G, containing only cadherin domains EC1 and EC2 (Fc fusion, UniProt P10288 165-387, looked up, not shown: a dimerising Fc or GST)
chain: DGVIPPINLPENSRGPFPQELVRIRSDRDKSLSLRYSVTGPGADQPPTGIFIINPISGQLSVTKPLDREQIASFHLRAHAVDVNGNQVENPIDIVINVIDMNDNRPEFLHQVWNGTVPEGSKPGTYVMTVTAIDADDPNAQNGMLRYRILSQAPSSPSPNMFTINNETGDIITVAAGLDREKVQQYTLIIQATDMEGNPTYGLSNTATAVITVTDVNDNPPEF
